The record followed here is paper PMC10359499.

The assay addresses EL346 (light-oxygen-voltage histidine kinase from Erythrobacter litoralis HTCC2594) (Erythrobacter litoralis HTCC2594) (UniProt Q2NB77). Put plainly: SEC-MALS; LOV-HKs and RH376 deletion mutants; ~15 μM sample (400 μl) with 1 mM ATP on Superdex 200 GL 10/300 in HSEC buffer (50 mM Hepes pH 7.5, 100 mM NaCl, 10 mM MgCl2, 0.5 mM DTT) with 1 mM ATP; dark (dim red light) and lit (blue LED) runs; FPLC at 4 °C, MALS and refractive index at 25 °C; n = 1; oligomeric state on a qualitative five-bin scale; both purified. In general terms: Size exclusion chromatography separates by hydrodynamic size, large species first.

These are yes or no findings as the source states them, for the method shown. Tags and fused reporters may be left off the sequences shown.

B1: EL346 (light-oxygen-voltage histidine kinase from Erythrobacter litoralis HTCC2594) (enzyme, UniProt Q2NB77 1-346)
chain: MAVGLAEHDKEAWGRLPFSLTIADISQDDEPLIYVNRAFEQMTGYSRSSVVGRNCRFLQGEKTDPGAVERLAKAIRNCEEVEETIYNYRADGEGFWNHLLMGPLEDQDEKCRYFVGIQVDMGQSESPDRATELDRQLAEVQHRVKNHLAMIVSMIRIQSSQAGGVGSQFDSLSRRVEALQLLYQEMDIAGAAKATDKIIPLGAYLGRIASAINHIDGRGAIKVNVQADTVDVPVETAGRIGLLVSEVLTNALQHAFSDRASGVVQLRSSVMSGEQLRVTVEDDGRGIPEDCDWPNEGNLGSRIVRQLVQGLGAELNVTRGGTGTIVNIDIPLSQQKTLIADERTKD
Turning to B1, the binding entry is reported as “no binding (tested: ~15 μM)”.
